Source: PMC10741959
No constants are given. Whether binding was seen depends on the method and setting. Binding seen in cells or lysates may run through a third protein. Binding can be weak; no strength is given.

Chains of the proteins cited; added tags and fusions are not shown. Lines headed by an entry give the natural chain unless they say otherwise; changes in a name come on top.
UniProt Q9NZ71: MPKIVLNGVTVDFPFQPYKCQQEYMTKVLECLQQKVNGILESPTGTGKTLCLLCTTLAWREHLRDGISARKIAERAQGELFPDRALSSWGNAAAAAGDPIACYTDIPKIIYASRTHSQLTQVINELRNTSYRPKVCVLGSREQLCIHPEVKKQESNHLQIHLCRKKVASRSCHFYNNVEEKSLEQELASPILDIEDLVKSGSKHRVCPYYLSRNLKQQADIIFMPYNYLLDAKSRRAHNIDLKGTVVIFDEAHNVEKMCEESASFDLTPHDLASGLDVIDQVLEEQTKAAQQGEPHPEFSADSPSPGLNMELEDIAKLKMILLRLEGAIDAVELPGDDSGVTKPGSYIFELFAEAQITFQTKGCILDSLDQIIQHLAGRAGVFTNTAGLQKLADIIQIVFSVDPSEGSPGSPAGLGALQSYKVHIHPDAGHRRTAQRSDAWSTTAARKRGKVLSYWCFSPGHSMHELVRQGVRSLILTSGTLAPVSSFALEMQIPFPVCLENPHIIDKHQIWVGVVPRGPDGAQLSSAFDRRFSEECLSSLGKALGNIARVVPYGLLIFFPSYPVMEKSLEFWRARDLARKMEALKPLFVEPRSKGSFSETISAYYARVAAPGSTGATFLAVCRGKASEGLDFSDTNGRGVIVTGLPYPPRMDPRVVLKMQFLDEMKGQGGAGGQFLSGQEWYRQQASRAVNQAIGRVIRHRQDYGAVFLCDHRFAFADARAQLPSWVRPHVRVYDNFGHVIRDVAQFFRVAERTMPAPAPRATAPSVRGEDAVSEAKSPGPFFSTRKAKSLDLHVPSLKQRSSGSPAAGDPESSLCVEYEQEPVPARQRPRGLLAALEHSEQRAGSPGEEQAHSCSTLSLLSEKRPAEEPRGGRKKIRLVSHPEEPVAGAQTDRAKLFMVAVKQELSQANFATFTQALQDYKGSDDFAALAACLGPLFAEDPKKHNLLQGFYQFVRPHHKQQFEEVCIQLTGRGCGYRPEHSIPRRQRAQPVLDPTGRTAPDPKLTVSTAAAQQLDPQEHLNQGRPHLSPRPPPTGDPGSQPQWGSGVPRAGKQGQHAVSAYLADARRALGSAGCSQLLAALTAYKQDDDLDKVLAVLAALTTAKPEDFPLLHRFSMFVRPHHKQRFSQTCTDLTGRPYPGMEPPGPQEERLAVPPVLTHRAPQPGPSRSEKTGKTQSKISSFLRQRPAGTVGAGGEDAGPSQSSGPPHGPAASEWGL
UniProt P49790: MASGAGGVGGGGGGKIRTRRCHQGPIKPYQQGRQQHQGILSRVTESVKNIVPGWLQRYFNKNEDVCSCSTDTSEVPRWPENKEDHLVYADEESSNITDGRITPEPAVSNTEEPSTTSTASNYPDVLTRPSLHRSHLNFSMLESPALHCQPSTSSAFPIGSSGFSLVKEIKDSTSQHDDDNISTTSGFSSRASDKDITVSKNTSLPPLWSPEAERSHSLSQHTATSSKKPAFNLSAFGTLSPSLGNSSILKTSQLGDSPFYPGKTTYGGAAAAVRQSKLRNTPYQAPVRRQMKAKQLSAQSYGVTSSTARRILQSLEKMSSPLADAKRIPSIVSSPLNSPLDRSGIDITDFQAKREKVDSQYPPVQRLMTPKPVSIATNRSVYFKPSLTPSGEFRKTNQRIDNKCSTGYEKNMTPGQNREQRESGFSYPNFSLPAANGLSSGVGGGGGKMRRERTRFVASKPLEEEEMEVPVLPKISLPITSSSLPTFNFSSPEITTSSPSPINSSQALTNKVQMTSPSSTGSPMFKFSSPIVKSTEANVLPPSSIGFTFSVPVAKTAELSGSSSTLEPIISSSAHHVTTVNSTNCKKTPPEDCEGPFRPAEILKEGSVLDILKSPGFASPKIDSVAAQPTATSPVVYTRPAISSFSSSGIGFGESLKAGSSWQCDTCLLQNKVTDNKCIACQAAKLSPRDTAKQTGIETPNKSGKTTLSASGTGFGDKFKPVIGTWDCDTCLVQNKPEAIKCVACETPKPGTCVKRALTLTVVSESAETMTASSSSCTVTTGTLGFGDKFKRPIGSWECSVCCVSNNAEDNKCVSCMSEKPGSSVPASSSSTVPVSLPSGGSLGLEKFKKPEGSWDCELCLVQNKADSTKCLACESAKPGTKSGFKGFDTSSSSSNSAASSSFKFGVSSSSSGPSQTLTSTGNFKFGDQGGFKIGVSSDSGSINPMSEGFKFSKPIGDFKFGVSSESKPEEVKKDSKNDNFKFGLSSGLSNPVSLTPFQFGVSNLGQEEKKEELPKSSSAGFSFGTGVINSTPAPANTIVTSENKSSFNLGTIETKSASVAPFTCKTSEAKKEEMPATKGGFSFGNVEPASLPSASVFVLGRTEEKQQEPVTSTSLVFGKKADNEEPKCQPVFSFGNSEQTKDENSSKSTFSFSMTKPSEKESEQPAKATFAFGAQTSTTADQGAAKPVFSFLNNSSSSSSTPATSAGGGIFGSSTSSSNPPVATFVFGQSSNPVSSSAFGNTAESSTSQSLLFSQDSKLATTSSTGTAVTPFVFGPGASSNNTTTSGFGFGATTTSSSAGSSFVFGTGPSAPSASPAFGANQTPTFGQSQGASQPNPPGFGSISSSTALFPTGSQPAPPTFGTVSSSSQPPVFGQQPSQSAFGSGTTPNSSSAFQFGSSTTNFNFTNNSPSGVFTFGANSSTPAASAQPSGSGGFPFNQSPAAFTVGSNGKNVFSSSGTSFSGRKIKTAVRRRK

Legend:
[1] = molecular target: RTEL1 (Regulator of TElomere Length Helicase 1), endogenous (human (endogenous in HeLa and 293T)) (UniProt Q9NZ71); experiment: co-IP; 293T cells transiently transfected with GFP-tagged N-terminal fragments of NUP153; immunoprecipitation with anti-RTEL1, blot with anti-GFP
[2] = molecular target: RTEL1 (Regulator of TElomere Length Helicase 1), endogenous (human (endogenous in HeLa and 293T)) (UniProt Q9NZ71); experiment: co-IP; anti-RTEL1 immunoprecipitation from HeLa lysates, both proteins endogenous; cells synchronised in G1/S, treated or not with importazole (40 μM, 3 h), released into S-phase for 1 h; blot with mAb414 and anti-RTEL1

binding [1] | binding [2] | Substance
binds |  | GFP-tagged N-terminal fragment of NUP153 (aa 1-434) (from UniProt P49790 1-434) (domain or fragment)
 | binds | NUP153, endogenous (from UniProt P49790 1-1475)
